Counter-ions that a name gives are not always drawn. This is one part of the list. Single values are uncertain, as repeats are few or missing.
Tested on: Drosophila melanogaster DPAGT1 (Alg7) RNAi eye model
Experiment: eye size Z-score vs DMSO-treated DPAGT1 model flies; higher = larger eye (suppression of DPAGT1 phenotype)
Conditions: 5 uM

Compound | eye size Z-score | eye size Z-score (female)
CCCOc1ccc2[nH]c(NC(=O)OC)nc2c1 [Oxibendazol] | 0.17 | 
CN(CCCN1c2ccccc2CCc2ccccc21)CC(=O)c1ccc(Cl)cc1 [Lofepramine] | 0.11 | 
O=C1NCC2(CCN(CCc3ccccc3)CC2)O1 [Fenspiride hydrochloride] | -0.12 | 
Clc1ccc2c(c1)CCc1cccnc1C2=C1CCNCC1 [Desloratadine] | 0.93 | 
CC(=O)O[C@]1(C(C)=O)CC[C@H]2[C@@H]3C=C(Cl)C4=CC(=O)CC[C@]4(C)[C@H]3CC[C@@]21C [Chlormadinone acetate] | -0.03 | 
CCN(CC)C(C)CN1c2ccccc2Sc2ccccc21 (stereo not given) [Ethopropazine hydrochloride] | -0.32 | 
CCCNC(=O)NS(=O)(=O)c1ccc(Cl)cc1 [Chlorpropamide] | -0.5 | 
Cc1cc(O)c(C(=O)N[C@@H](C(=O)N[C@@H]2C(=O)N3C(C(=O)O)=C(CSc4nnnn4C)CS[C@H]23)c2ccc(O)cc2)cn1 [Cefpiramide] | 0.13 | 
CO[C@H]1/C=C/O[C@@]2(C)Oc3c(C)c(O)c4c(O)c(c5c(nc6cc(C)ccn65)c4c3C2=O)NC(=O)/C(C)=C\C=C\[C@H](C)[C@H](O)[C@@H](C)[C@@H](O)[C@@H](C)[C@H](OC(C)=O)[C@@H]1C [Rifaximin] | -1.12 | 
O=C1[C@H]2CCCC[C@H]2C(=O)N1CCCCN1CCN(c2nsc3ccccc23)CC1 [Perospirone hydrochloride] | -0.12 | 
Clc1cccc(Cl)c1NC1=NCCN1 [Clonidine hydrochloride] | -0.2 | 
Nc1nc2c(ncn2COC(CO)CO)c(=O)[nH]1 [Ganciclovir] | 0 | 
NCCCCCC(=O)O [Aminocaproic acid] | 0.52 | 
CN(C)C(=N)NC(=N)N [Metformin hydrochloride] | 0.28 | 
CC=CC(=O)N(CC)c1ccccc1C [Crotamiton] | -0.46 | 
CC1=C(C)C(=O)C(C(CCCCCC(=O)O)c2ccccc2)=C(C)C1=O (stereo not given) [Seratrodast] |  | 0.92
CNCCc1ccccn1 [Betahistine mesylate] | 0.28 | 
CCOC(=O)/C=C(C)/C=C/C=C(C)/C=C/c1c(C)cc(OC)c(C)c1C [Etretinate] | -0.1 | 
NC[C@H]1O[C@H](O[C@H]2[C@H](O)[C@@H](O[C@H]3O[C@H](CO)[C@@H](O)[C@H](N)[C@H]3O)[C@H](N)C[C@@H]2N)[C@H](N)C[C@@H]1O [Tobramycin] | 0.93 | 
C=CCOc1ccccc1OCC(O)CNC(C)C (stereo not given) [Oxprenolol hydrochloride] | 0.26 | 
Cc1cc(C(C)(C)C)cc(C)c1CC1=NCCN1 [Xylometazoline hydrochloride] | -0.56 | 
CCN(CC)C(=O)C1(c2ccccc2)CC1CN (stereo not given) [Milnacipran hydrochloride] | 0.58 | 
O=P(O)(O)C(O)(Cn1ccnc1)P(=O)(O)O [Zoledronic acid hydrate] | 0.66 | 
CC#CCn1c(N2CCC[C@@H](N)C2)nc2c1c(=O)n(Cc1nc(C)c3ccccc3n1)c(=O)n2C [Linagliptin] | 0.74 | 
CCN(CC)CCOCCOC(=O)C1(c2ccccc2)CCCC1 [Carbetapentane citrate] | 0.51 | 

Compound | eye size Z-score | eye size Z-score (female)
CCN(CC)C(=O)Nc1ccc(OCC(O)CNC(C)(C)C)c(C(C)=O)c1 (stereo not given) [Celiprolol hydrochloride] |  | 0.1
CCCCC1C(=O)N(c2ccccc2)N(c2ccc(O)cc2)C1=O (stereo not given) [Oxyphenbutazone] | 0.3 | 
N[C@H]1CONC1=O [(S,-) Cycloserine] | -0.39 | 
CC(=O)Nc1ccc(OC(=O)c2ccccc2O)cc1 [Acetaminosalol] | -0.83 | 
COc1cc2nc(N3CCN(C(=O)C4COc5ccccc5O4)CC3)nc(N)c2cc1OC (stereo not given) [Doxazosin mesylate] | 0.81 | 
CCCOc1ccccc1-c1nc2[nH]nnc2c(=O)[nH]1 [Zaprinast] | 0.28 | 
CCC[C@@H]1C[C@@H](C(=O)N[C@@H]([C@H]2O[C@H](SC)[C@H](OP(=O)(O)O)[C@@H](O)[C@H]2O)[C@H](C)Cl)N(C)C1 [Clindamycin Phosphate] | 1.42 | 
CCCCCCNC(=O)n1cc(F)c(=O)[nH]c1=O [Carmofur] | 0.77 | 
Nc1nc(=O)n([C@@H]2CS[C@H](CO)O2)cc1F [(-) Emtricitabine] | -0.51 | 
COc1ccc(Cl)cc1C(=O)NCCc1ccc(S(=O)(=O)NC(=O)NC2CCCCC2)cc1 [Glibenclamide] | -0.28 | 
CC(C(O)c1ccc(O)cc1)N1CCC(Cc2ccccc2)CC1 (stereo not given) [Ifenprodil tartrate] | 0.28 | 
CC(C)[C@H](N)C(=O)OCCOCn1cnc2c(=O)nc(N)[nH]c21 [Valacyclovir hydrochloride] | 1.72 | 
CN1CCN2c3ncccc3Cc3ccccc3C2C1 (stereo not given) [Mirtazapine] | 0.67 | 
COC(=O)N/N=C/c1c[n+]([O-])c2ccccc2[n+]1[O-] [Carbadox] | 0.99 | 
CN(C(=O)CN(CCO)CC(=O)N(C)C(C)(C)Cc1ccccc1)C(C)(C)Cc1ccccc1 [Oxethazaine] | 0.76 | 
Cc1cc(C)nc(NS(=O)(=O)c2ccc(N)cc2)n1 [Sulfamethazine sodium salt] | 0.78 | 
CC1(C)O[C@@H]2C[C@H]3[C@@H]4C[C@H](F)C5=CC(=O)C=C[C@]5(C)[C@@]4(F)[C@@H](O)C[C@]3(C)[C@]2(C(=O)CO)O1 [Fluocinolone acetonide] | -0.99 | 
COc1cc(NS(=O)(=O)c2ccc(N)cc2)ncn1 [Sulfamonomethoxine] | 0.16 | 
C[C@]12CC[C@@H]3c4ccc(O)cc4C[C@@H](CCCCCCCCC[S+]([O-])CCCC(F)(F)C(F)(F)F)[C@H]3[C@@H]1CC[C@@H]2O (stereo not given in full) [Fulvestrant] | 0.53 | 
O=C(NCCCN1CCOCC1)c1ccc(Cl)cc1 [Eprobemide] | 0.51 | 
CO/N=C(\C(=O)N[C@@H]1C(=O)N2C(C(=O)O)=C(COC(C)=O)CS[C@H]12)c1csc(N)n1 [Cefotaxime sodium salt] | -0.72 | 
C/C(=C1\CCOC(=O)S1)N(C=O)Cc1cnc(C)nc1N [Cycotiamine] | 1.2 | 
CCCCOc1cc(C(=O)OCCN(CC)CC)ccc1N [Benoxinate hydrochloride] | -0.44 | 
Clc1ccc2nsnc2c1NC1=NCCN1 [Tizanidine hydrochloride] | -0.1 | 
CC(C)Oc1ccc2c(=O)c(-c3ccccc3)coc2c1 [Ipriflavone] | 0.23 | 

Quoted at random: 4 compounds from above
Compound | eye size Z-score | eye size Z-score (female)
CCC[C@@H]1C[C@@H](C(=O)N[C@@H]([C@H]2O[C@H](SC)[C@H](OP(=O)(O)O)[C@@H](O)[C@H]2O)[C@H](C)Cl)N(C)C1 [Clindamycin Phosphate] | 1.42 | 
Cc1cc(C)nc(NS(=O)(=O)c2ccc(N)cc2)n1 [Sulfamethazine sodium salt] | 0.78 | 
COc1ccc(Cl)cc1C(=O)NCCc1ccc(S(=O)(=O)NC(=O)NC2CCCCC2)cc1 [Glibenclamide] | -0.28 | 
COC(=O)N/N=C/c1c[n+]([O-])c2ccccc2[n+]1[O-] [Carbadox] | 0.99 | 

Continuation.

Compound | eye size Z-score | eye size Z-score (female)
Cc1cc2cc3c(C)cc(=O)oc3c(C)c2o1 [Trioxsalen] | -0.15 | 
CC(=O)Nc1nnc(S(N)(=O)=O)s1 [Acetazolamide] | 0.78 | 
CNCC(O)c1ccc(O)c(O)c1 (stereo not given) [Racepinephrine hydrochloride] | 0.15 | 
CCOC1O[C@H]([C@@H](COCc2ccccc2)OCc2ccccc2)[C@H](OCc2ccccc2)[C@H]1O (stereo not given in full) [Tribenoside] |  | 1.18
CC(=O)Nc1c(I)c(C(=O)N[C@H]2C(O)O[C@H](CO)[C@@H](O)[C@@H]2O)c(I)c(N(C)C(C)=O)c1I (stereo not given in full) [Metrizamide] | -0.36 | 
CCN(CC)CCNC(=O)c1ccc(N)cc1 [Procainamide hydrochloride] | -0.03 | 
CCCCCCOc1ccccc1C(N)=O [Exalamide] | 0.25 | 
C[C@@H]1CCC[C@H](C)N1NC(=O)c1ccc(Cl)c(S(N)(=O)=O)c1 [Clopamide] | -0.37 | 
CC[C@H]1OC(=O)[C@H](C)[C@@H](O[C@H]2C[C@@](C)(OC)[C@@H](O)[C@H](C)O2)[C@H](C)[C@@H](O[C@@H]2O[C@H](C)C[C@H](N(C)C)[C@H]2O)[C@](C)(O)C[C@@H](C)CN(C)[C@H](C)[C@@H](O)[C@]1(C)O [Azithromycin] | 0.37 | 
CN[C@H]1CC[C@@H](c2ccc(Cl)c(Cl)c2)c2ccccc21 [Sertraline] | 1.06 | 
CC(CNC1CCCCC1)OC(=O)c1ccccc1 (stereo not given) [Hexylcaine hydrochloride] | 1.06 | 
Nc1ccc(S(=O)(=O)Nc2nccs2)cc1 [Sulfathiazole] | 0.12 | 
Cc1ccc(-c2cc(C(F)(F)F)nn2-c2ccc(S(N)(=O)=O)cc2)cc1 [Celecoxib] | -0.03 | 
CC12CC3CC(C)(C1)CC(N)(C3)C2 [Memantine hydrochloride] | 0.83 | 
C#C[C@]1(O)CC[C@H]2[C@@H]3CCC4=Cc5oncc5C[C@]4(C)[C@H]3CC[C@@]21C [Danazol] | -0.65 | 
O=C(Nc1ccc([N+](=O)[O-])cc1Cl)c1cc(Cl)ccc1O [Niclosamide] | 0.91 | 
CCOc1ccc(Cc2nccc3cc(OCC)c(OCC)cc23)cc1OCC [Ethaverine hydrochloride] | -0.44 | 
CCC[C@@H]1C[C@@H](C(=O)N[C@@H]([C@H]2O[C@H](SC)[C@H](O)[C@@H](O)[C@H]2O)[C@@H](C)O)N(C)C1 [Lincomycin hydrochloride] | -0.45 | 
CN1CCCN=C1/C=C/c1cccs1 [Pyrantel tartrate] | -0.37 | 
CCN(CC)CCN[C@@H](C(=O)OCCC(C)C)c1ccccc1 [Camylofine chlorhydrate] | 0.56 | 
NNC(=O)c1ccncc1 [Isoniazid] | 0.1 | 
CC1(C)O[C@@H]2C[C@H]3[C@@H]4C[C@H](F)C5=CC(=O)CC[C@]5(C)[C@H]4[C@@H](O)C[C@]3(C)[C@]2(C(=O)CO)O1 [Flurandrenolide] | 0.82 | 
O=C(O)c1cccnc1 [Niacin] | 0.89 | 
CCCCc1oc2ccccc2c1C(=O)c1cc(I)c(OCCN(CC)CC)c(I)c1 [Amiodarone hydrochloride] | -1.15 | 
O=c1[nH]c(=O)n([C@H]2C[C@H](O)[C@@H](CO)O2)cc1I [Idoxuridine] |  | 1.41

From the supplement of paper PMC11542785
